Where a name gives a salt, the structure may show the parent alone. This is one part of the list. Single values are uncertain, as repeats are few or missing.
Tests used:
Test in all cases: reduction in cell viability relative to untreated/vehicle; higher = more growth inhibition
Conditions in all cases: 200 nM; 72 h
M229P = test system: M229P (parental melanoma line)
M229R = test system: M229R (matched melanoma line resistant to BRAF inhibitors)
M238P = test system: M238P (parental melanoma line)
M238R = test system: M238R (matched melanoma line resistant to BRAF inhibitors)
M249P = test system: M249P (parental melanoma line)
M249R = test system: M249R (matched melanoma line resistant to BRAF inhibitors)
UACC62P = test system: UACC62P (parental melanoma line)
UACC62R = test system: UACC62R (matched melanoma line resistant to BRAF inhibitors)

Measured: reduction in cell viability

NS(=O)(=O)c1ccc(Nc2nc(OCC3CCCCC3)c3[nH]cnc3n2)cc1
< 0%: all assays above

NCCCC(O)(P(=O)(O)O)P(=O)(O)O [Alendronate]
5.31%: UACC62P
< 0%: all other assays above

O=C1NC(O)CCN1[C@@H]1O[C@H](CO)[C@@H](O)[C@H]1O (stereo partly specified) [Tetrahydrouridine]
3.4%: M229R
< 0%: all other assays above

COc1cc2c(Oc3ccc(-c4cnc(Nc5ccc(F)cc5)n(C)c4=O)cc3F)ccnc2cc1OCCCN1CCOCC1
36%: M238P
16.1%: M238R
21.5%: UACC62P
< 0%: all other assays above

C[C@H]1c2cccc(O)c2C(=O)C2=C(O)[C@]3(O)C(=O)C(C(N)=O)=C(O)[C@@H](N(C)C)[C@@H]3[C@@H](O)[C@@H]21 [Doxycycline]
< 0%: all assays above

CC[C@H]1OC(=O)[C@H](C)[C@@H](O[C@H]2C[C@@](C)(OC)[C@@H](O)[C@H](C)O2)[C@H](C)[C@@H](O[C@@H]2O[C@H](C)C[C@H](N(C)C)[C@H]2O)[C@](C)(O)C[C@@H](C)C(=O)[C@H](C)[C@@H](O)[C@]1(C)O [Erythromycin]
< 0%: all assays above

CCOCC(O)COc1ccc(NC(=O)CC[S+](C)C)cc1 (stereo unspecified) [Suplatast tosilate]
0.89%: UACC62P
< 0%: all other assays above

CCC(C)(C)C(=O)O[C@H]1C[C@@H](C)C=C2C=C[C@H](C)[C@H](CC[C@@H]3C[C@@H](O)CC(=O)O3)[C@H]21 [Simvastatin]
0.17%: M238P
< 0%: all other assays above

COC(=O)[C@]12CCC(C)(C)C[C@H]1[C@H]1C(=O)C=C3[C@@]4(C)C=C(C#N)C(=O)C(C)(C)[C@@H]4CC[C@@]3(C)[C@]1(C)CC2 [Bardoxolone methyl]
20.9%: M249P
19.8%: M249R
5.05%: UACC62P
9.68%: M238P
4.61%: UACC62R
< 0%: all other assays above

Random excerpt: three records from the list
CCC(C)(C)C(=O)O[C@H]1C[C@@H](C)C=C2C=C[C@H](C)[C@H](CC[C@@H]3C[C@@H](O)CC(=O)O3)[C@H]21 [Simvastatin]
0.17%: M238P
< 0%: all other assays above

COC(=O)[C@]12CCC(C)(C)C[C@H]1[C@H]1C(=O)C=C3[C@@]4(C)C=C(C#N)C(=O)C(C)(C)[C@@H]4CC[C@@]3(C)[C@]1(C)CC2 [Bardoxolone methyl]
20.9%: M249P
19.8%: M249R
5.05%: UACC62P
9.68%: M238P
4.61%: UACC62R
< 0%: all other assays above

CC[C@H]1OC(=O)[C@H](C)[C@@H](O[C@H]2C[C@@](C)(OC)[C@@H](O)[C@H](C)O2)[C@H](C)[C@@H](O[C@@H]2O[C@H](C)C[C@H](N(C)C)[C@H]2O)[C@](C)(O)C[C@@H](C)C(=O)[C@H](C)[C@@H](O)[C@]1(C)O [Erythromycin]
< 0%: all assays above

(next part)

CCN1C[C@H](C)n2c(c(O)c3c(=O)n(Cc4ccc(F)c(Cl)c4)nc(C(=O)NC)c32)C1=O
< 0%: all assays above

CC(C)C[C@@H](C(=O)N[C@H](C(=O)OC1CCCC1)c1ccccc1)[C@H](O)C(=O)NO [Tosedostat]
8.71%: UACC62R
< 0%: all other assays above

CS(=O)(=O)c1ccc([C@@H](O)[C@@H](CO)NC(=O)C(Cl)Cl)cc1 [Thiamphenicol]
< 0%: all assays above

c1cc(CN2CCCNCCNCCCNCC2)ccc1CN1CCCNCCNCCCNCC1 [Plerixafor hydrochloride]
< 0%: all assays above

CC(C)(C)C#Cc1cc(N(C(=O)[C@H]2CC[C@H](C)CC2)[C@H]2CC[C@H](O)CC2)c(C(=O)O)s1 [Lomibuvir]
< 0%: all assays above

C1CCC(C(CC2CCCCN2)C2CCCCC2)CC1 (stereo unspecified) [Perhexiline]
< 0%: all assays above

COc1cc2nc(N(C)CCCNC(=O)C3CCCO3)nc(N)c2cc1OC (stereo unspecified) [Alfuzosin hydrochloride]
< 0%: all assays above

NNCCc1ccccc1 [Phenelzine]
< 0%: all assays above

NC[C@H]1O[C@H](O[C@H]2[C@H](O)[C@@H](O[C@H]3O[C@H](CO)[C@@H](O)[C@H](N)[C@H]3O)[C@H](N)C[C@@H]2N)[C@H](O)[C@@H](O)[C@@H]1O [Kanamycin]
< 0%: all assays above

Fc1ccc(C(c2ccc(F)cc2)N2CCN(C/C=C/c3ccccc3)CC2)cc1 [Flunarizine]
0.69%: UACC62P
< 0%: all other assays above

Nc1cc(C(F)(F)F)c(-c2cc(N3CCOCC3)nc(N3CCOCC3)n2)cn1 [BKM120 (NVP-BKM120, Buparlisib)]
11.8%: M238P
11.5%: M229R
10.9%: M249R
< 0%: all other assays above

COc1ccccc1[C@H](c1cccc2ccccc12)[C@@](C)(C#N)C(=O)N1CCC(c2cccc(C(F)(F)F)c2)CC1
< 0%: all assays above

CC1=C(/C=C/C(C)=C/C=C/C(C)=C/C=C/C=C(C)/C=C/C=C(C)/C=C/C2=C(C)CCCC2(C)C)C(C)(C)CCC1 [beta-Carotene]
< 0%: all assays above

COc1ccc(C(=O)CC2(O)C(=O)Nc3c(Cl)ccc(Cl)c32)cc1 (stereo unspecified)
16.9%: M229R
3%: UACC62R
< 0%: all other assays above

CCn1c(-c2nonc2N)nc2cncc(CNC3CCNCC3)c21
3.79%: UACC62R
3.53%: UACC62P
< 0%: all other assays above

O=c1cc(N2CCOCC2)oc2c(-c3ccccc3)cccc12
< 0%: all assays above

CC1(C)CCC(c2ccc(Cl)cc2)=C(CN2CCN(c3ccc(C(=O)NS(=O)(=O)c4ccc(N[C@H](CCN5CCOCC5)CSc5ccccc5)c(S(=O)(=O)C(F)(F)F)c4)cc3)CC2)C1 [ABT-263 (Navitoclax)]
< 0%: all assays above

CC1(C)Cc2c(sc(NC(=S)NC(=O)c3ccccc3)c2C(=O)O)CO1
< 0%: all assays above

Cc1nnc(C(=O)NC(C)(C)c2nc(C(=O)NCc3ccc(F)cc3)c(O)c(=O)n2C)o1 [Raltegravir]
< 0%: all assays above

O=C(NCCO[N+](=O)[O-])c1cccnc1 [Nicorandil]
< 0%: all assays above

CCCCN(CCCC)CCC(O)c1cc2c(Cl)cc(Cl)cc2c2cc(C(F)(F)F)ccc12 (stereo unspecified) [Halofantrine]
21.2%: UACC62P
0.44%: UACC62R
9.44%: M229P
5.59%: M238P
< 0%: all other assays above

CC1(C)[C@@H](O[C@H]2O[C@H](C(=O)O)[C@@H](O)[C@H](O)[C@H]2O[C@@H]2O[C@H](C(=O)O)[C@@H](O)[C@H](O)[C@H]2O)CC[C@]2(C)[C@H]3C(=O)C=C4[C@@H]5C[C@@](C)(C(=O)O)CC[C@]5(C)CC[C@@]4(C)[C@]3(C)CC[C@@H]12 [Glycyrrhizin]
< 0%: all assays above

CC[N+](CC)(CC)CCOc1cccc(OCC[N+](CC)(CC)CC)c1OCC[N+](CC)(CC)CC [Gallamine triethiodide]
15.5%: M238P
26.6%: UACC62P
< 0%: M229R
7.67%: M249P
13.2%: UACC62R
17.5%: M238R
7.51%: M249R
0.23%: M229P

O=C(CCCN1CCN(c2ccc(F)cc2)CC1)NC1c2ccccc2CSc2ccccc21 (stereo unspecified) [Monatepil]
< 0%: all assays above

COC1=CC(c2cc3ccccc3[nH]2)=N/C1=C\c1[nH]c(C)cc1C [Obatoclax]
64.1%: M229P
74.4%: M238P
67.2%: M249P
76.9%: M229R
75.9%: M249R
67.7%: M238R
58.7%: UACC62R
40.9%: UACC62P

Cc1ccc(C(C)(O)c2nc3ccccc3s2)c(C)c1 (stereo unspecified)
< 0%: all assays above

C[C@]12CC[C@H](O)CC1=CC[C@@H]1[C@@H]2CC[C@]2(C)C(n3cnc4ccccc43)=CC[C@@H]12 [Galeterone]
< 0%: all assays above

O=C(Nc1nc2ccc(NC(=O)C34CC5CC(CC(C5)C3)C4)cc2s1)c1ccccc1
28.9%: UACC62P
4.95%: M229R
8.87%: UACC62R
< 0%: all other assays above

Cc1cc(Nc2cc(NC(=O)c3c(Cl)cccc3Cl)ccn2)nc(N)n1
3.06%: M229R
12.4%: M229P
< 0%: M249P
21%: M249R
24.4%: M238P
10.5%: M238R
24%: UACC62P
61.5%: UACC62R

Cc1ccc(CN2CCNCC2)cc1NC(=O)CNc1ccc(F)c(F)c1
< 0%: all assays above

CCC1=C(C)CN(C(=O)NCCc2ccc(S(=O)(=O)NC(=O)N[C@H]3CC[C@H](C)CC3)cc2)C1=O [Glimepiride]
0.2%: M229R
< 0%: all other assays above

Cc1ccc(C(=O)c2cc(O)c(O)c([N+](=O)[O-])c2)cc1 [Tolcapone]
5.84%: M238P
< 0%: all other assays above

Cc1noc(-c2ccc(CSCCC(=O)O)cc2)c1NC(=O)OC(C)c1ccccc1Cl (stereo unspecified)
2.54%: M249R
< 0%: all other assays above

— the supplement of paper PMC9015667
